Measurements reported in PubChem BioAssay AID1159578 (Peter MacCallum Cancer Centre, 2015)

Aim: 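siRNA pools altering how lymphatic endothelial cells close a scratch wound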 (primary screen)
Cells: human lymphatic endothelial cells
Knock-down reagent: siRNA pool against human genes, 40 nM
Timing: 48 h after transfection
Read-out: 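High-content imaging of dye-stained cells in a scratch assay measures filled wound area and nuclei per well; duplicate means given as ratio to mock and robust z-score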
Direction: migration robust z-score: higher = faster migration into the scratch; migration relative to mock: higher = more scratch area covered than mock; nuclei per well: higher = more cells in the well
Rule for the call: 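Pools averaging fewer than 3300 nuclei are never called; remaining pools count as changed when migration robust z lies outside -2 to 2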
Calls: active = migration changed; inactive = no migration change, or too few cells
The deposit covers about 18,000 reagents; shown is a random part of them. In the full data, about 1,030 (5.7%) got an active call. 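Inactive calls also include pools with fewer than 3300 nuclei, whose migration was not assessed.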 Raw values vary from plate to plate and are shown uncorrected.

gene	migration robust z-score	migration class with cell-count check	migration relative to mock	nuclei per well, duplicate mean	Outcome
BHLHE41	1.83	migration z between -2 and 2; enough cells	1.36	6983	inactive
TMEM64	-0.26	migration z between -2 and 2; enough cells	0.82	5887	inactive
XXYLT1	-0.52	migration z between -2 and 2; enough cells	0.74	5527	inactive
PPP1R16B	1.3	migration z between -2 and 2; enough cells	1.06	4798	inactive
DEFB116	0.06	migration z between -2 and 2; enough cells	0.9	4032	inactive
RASL10A	-0.13	migration z between -2 and 2; enough cells	0.78	4799	inactive
HOMER2	0.55	migration z between -2 and 2; enough cells	1.02	5678	inactive
NAF1	0.12	migration z between -2 and 2; enough cells	0.92	6476	inactive
GLE1	0.52	migration z between -2 and 2; enough cells	1.02	5740	inactive
CD164L2	-0.1	migration z between -2 and 2; enough cells	0.86	6127	inactive
CAPNS1	-0.52	migration z between -2 and 2; enough cells	0.7	5275	inactive
KCNK9	0.18	migration z between -2 and 2; enough cells	0.84	5376	inactive
SYTL4	-0.08	migration z between -2 and 2; enough cells	0.79	4866	inactive
CENPX	-0.56	migration z between -2 and 2; enough cells	0.74	6632	inactive
TMEFF1	-0.33	migration z between -2 and 2; enough cells	0.8	5633	inactive
AXIN2	0.36	migration z between -2 and 2; enough cells	0.98	5496	inactive
PRELID2	-0.34	migration z between -2 and 2; enough cells	0.8	5974	inactive
PRL	1.22	migration z between -2 and 2; enough cells	1.2	6678	inactive
BRF2	0.86	migration z between -2 and 2; enough cells	1.11	6521	inactive
NOL3	0.64	migration z between -2 and 2; enough cells	1.05	5372	inactive
CSRNP3	-0.27	migration z between -2 and 2; enough cells	0.82	6118	inactive
SNRPB2	-0.88	migration z between -2 and 2; enough cells	0.66	5520	inactive
ATF7IP	-0.61	migration z between -2 and 2; enough cells	0.73	5142	inactive
GARIN3	-1.4	migration z between -2 and 2; enough cells	0.52	5730	inactive
SLC38A10	-0.01	migration z between -2 and 2; enough cells	0.88	5046	inactive
TMEM129	-0.28	migration z between -2 and 2; enough cells	0.82	6648	inactive
CALHM6	-0.56	migration z between -2 and 2; enough cells	0.74	5785	inactive
SLC16A5	-1.61	migration z between -2 and 2; enough cells	0.5	4702	inactive
OR10T2	-1.21	migration z between -2 and 2; enough cells	0.57	5818	inactive
RPS4Y1	0.47	migration z between -2 and 2; enough cells	1	7081	inactive
LOC642219 (retired record)	0.05	migration z between -2 and 2; enough cells	0.82	5940	inactive

Sorted by “migration relative to mock” (high to low): some entries from above
gene	migration robust z-score	migration class with cell-count check	migration relative to mock	nuclei per well, duplicate mean	Outcome
BHLHE41	1.83	migration z between -2 and 2; enough cells	1.36	6983	inactive
PPP1R16B	1.3	migration z between -2 and 2; enough cells	1.06	4798	inactive
HOMER2	0.55	migration z between -2 and 2; enough cells	1.02	5678	inactive
DEFB116	0.06	migration z between -2 and 2; enough cells	0.9	4032	inactive
TMEM64	-0.26	migration z between -2 and 2; enough cells	0.82	5887	inactive
RASL10A	-0.13	migration z between -2 and 2; enough cells	0.78	4799	inactive
XXYLT1	-0.52	migration z between -2 and 2; enough cells	0.74	5527	inactive

More reagents follow.
gene	migration robust z-score	migration class with cell-count check	migration relative to mock	nuclei per well, duplicate mean	Outcome
SLC5A6	-0.42	migration z between -2 and 2; enough cells	0.77	6899	inactive
ANGPT1	-0.72	migration z between -2 and 2; enough cells	0.66	3633	inactive
CRNN	-3.68	under 3300 nuclei; migration not judged	-0.06	2206	inactive
ANGPTL1	0.02	migration z between -2 and 2; enough cells	0.81	4874	inactive
CHRM4	1.14	migration z between -2 and 2; enough cells	1.02	7039	inactive
SHE	-0.5	migration z between -2 and 2; enough cells	0.75	7950	inactive
GNPDA2	0.31	migration z between -2 and 2; enough cells	0.86	5844	inactive
GPI	-5.34	migration z below -2; enough cells	-0.22	4351	active
ZNF329	0	migration z between -2 and 2; enough cells	0.88	5458	inactive
MAP6D1	0.32	migration z between -2 and 2; enough cells	0.97	5521	inactive
GDF11	-0.49	migration z between -2 and 2; enough cells	0.71	5028	inactive
PENK	1.81	migration z between -2 and 2; enough cells	1.35	5412	inactive
GFUS	-2.02	migration z below -2; enough cells	0.42	5604	active
NDFIP1	-0.24	migration z between -2 and 2; enough cells	0.82	5740	inactive
PKDREJ	1.25	migration z between -2 and 2; enough cells	1.04	7264	inactive
VPS28	0.02	migration z between -2 and 2; enough cells	0.89	5022	inactive
ELAVL2	1.09	migration z between -2 and 2; enough cells	1.17	5455	inactive
CENPH	-1.59	migration z between -2 and 2; enough cells	0.48	4982	inactive
WDR89	-0.21	migration z between -2 and 2; enough cells	0.82	6210	inactive
DACH1	-0.44	migration z between -2 and 2; enough cells	0.72	6476	inactive
ADPRS	0.26	migration z between -2 and 2; enough cells	0.86	5262	inactive
MRPS6	-0.69	migration z between -2 and 2; enough cells	0.7	6618	inactive
GJA1	-0.5	migration z between -2 and 2; enough cells	0.71	5768	inactive
MATK	-2.62	migration z below -2; enough cells	0.3	3396	active
BAZ1B	1.46	migration z between -2 and 2; enough cells	1.08	6669	inactive
TBX2	0.39	migration z between -2 and 2; enough cells	0.88	6641	inactive
KPNA3	-0.39	migration z between -2 and 2; enough cells	0.73	4696	inactive
CEP19	1.54	migration z between -2 and 2; enough cells	1.29	6108	inactive
KTI12	-0.86	migration z between -2 and 2; enough cells	0.66	5367	inactive
KANSL3	2.5	migration z above 2; enough cells	1.53	7823	active
AASDH	-0.72	migration z between -2 and 2; enough cells	0.7	7505	inactive
GPX7	-0.47	migration z between -2 and 2; enough cells	0.72	5706	inactive
MYCL	-0.55	migration z between -2 and 2; enough cells	0.7	5754	inactive
TP53	-0.6	migration z between -2 and 2; enough cells	0.73	6818	inactive
PLEKHB2	0.12	migration z between -2 and 2; enough cells	0.92	5402	inactive
NR2E3	-0.56	migration z between -2 and 2; enough cells	0.74	6846	inactive
CRAT	0.32	migration z between -2 and 2; enough cells	0.86	3824	inactive
DHRS4L2	-0.45	migration z between -2 and 2; enough cells	0.77	5948	inactive
WDR24	-0.34	migration z between -2 and 2; enough cells	0.74	4882	inactive
TEX14	-1.5	under 3300 nuclei; migration not judged	0.52	2491	inactive
TEX55	-1.72	migration z between -2 and 2; enough cells	0.44	6358	inactive
PPP3R1	0.42	migration z between -2 and 2; enough cells	0.88	5470	inactive
